# For part of these data: Expression grades refer to the transcript from which the peptide derives; gene names, where given, were looked up from the sequence.
# Experiments:
# [1] = system: primary HCC tissue samples; test: Identification and label-free LC-MS relative quantitation of HLA-presented peptides (presentation profiles/scores), HCC versus normal tissues; parameters: species or system human; key to PeptidePresentation (presentation score): very highly over-presented on tumors compared to a panel of normal tissues (+++); highly over-presented on tumors compared to a panel of normal tissues (++); over-presented on tumors compared to a panel of normal tissues (+); details: HCC tumors compared to a panel of normal tissues
# [2] = system: tumor samples of other tumor types; test: Over-presentation of peptides on additional tumor types versus normal tissues (LC-MS); parameters: species or system human; details: over-presentation on more than 5% of the measured tumor samples, or presentation on more than 5% with ratio of geometric means tumor vs normal tissues larger than 3
# [3] = system: source genes of the peptides in HCC and normal tissues; test: mRNA expression profiling of source genes by Affymetrix microarray (expression scores); parameters: species or system human; key: very highly overexpressed in tumors compared to a panel of normal tissues (+++); highly overexpressed in tumors compared to a panel of normal tissues (++); overexpressed in tumors compared to a panel of normal tissues (+); details: source gene mRNA in tumors compared to a panel of normal tissues
Substance,PeptidePresentation (presentation score) [1],Additional Entities (additional tumor types on which the peptide was found over-presented) [2],Gene Expression (expression score) [3],Other relevant organs/diseases (additional tumor types on which the peptide was found over-presented) [2]
31: peptide found in APOB (gene looked up) (YQMDIQQEL; listed as Homo sapiens) [compound 31],++,SCLC,+++,
39: peptide found in TNK2 (gene looked up) (ALDPKANFST; listed as Homo sapiens) [compound 39],+++,,+,"Kidney, Brain"
62: peptide found in GLUL (gene looked up) (KIAGTNAEV; listed as Homo sapiens) [compound 62],++,BRCA,+,
97: peptide found in APOB (gene looked up) (SLLPQLIEV; listed as Homo sapiens) [compound 97],++,SCLC,+++,
103: peptide found in GLUL (gene looked up) (SMGDHLWVA; listed as Homo sapiens) [compound 103],+++,"BRCA, Urinary bladder cancer, NHL",+,
114: peptide found in APOB (gene looked up) (VLSQVYSKV; listed as Homo sapiens) [compound 114],+++,SCLC,+++,
148: peptide found in SLC16A1 (gene looked up) (GLFAPLVFL; listed as Homo sapiens) [compound 148],+++,"Esophageal Cancer, Gallbladder Cancer, Bile Duct Cancer, NHL",+,Kidney
228: peptide found in ACSL4 (gene looked up) (YLITSVELL; listed as Homo sapiens) [compound 228],++,"OC, NHL",+,
233: peptide found in RABGGTB (gene looked up) (ALLGKLDAI; listed as Homo sapiens) [compound 233],+,"CLL, OC, Urinary bladder cancer, Gallbladder Cancer, Bile Duct Cancer, AML, NHL",+,"Kidney, Colon, Rectum"
263: peptide found in PEX19 (gene looked up) (VLYPSLKEI; listed as Homo sapiens) [compound 263],+,"RCC, BRCA, Uterine Cancer",+,
273: peptide found in RRBP1 (gene looked up) (AILETAPKEV; listed as Homo sapiens) [compound 273],++,Esophageal Cancer,+,
298: peptide found in CRYZ (gene looked up) (TMAKESSIIGV; listed as Homo sapiens) [compound 298],++,"SCLC, Gallbladder Cancer, Bile Duct Cancer",+,
302: peptide found in IGF2BP3 (gene looked up) (KIQEILTQV; listed as Homo sapiens) [compound 302],+++,"NSCLC, SCLC, GC, Melanoma, OC, Esophageal Cancer, Urinary bladder cancer, Uterine Cancer, Gallbladder Cancer, Bile Duct Cancer, AML, NHL, PC",+,"Kidney, Brain, Colon, Rectum, Pancreas, CLL"
327: peptide found in NDC80 (gene looked up) (GLNEEIARV; listed as Homo sapiens) [compound 327],++,,+,"Brain, Colon, Rectum"
